“Also recorded” adds a separate entry of the source. Part of at least one peptide drawing is inferred or uncertain, most often the ends. Square brackets hold non-standard residues; d marks the D form. Peptide text beside a SMILES is read from it.
Experiments:
[1] = Temperature dependent CD of peptide folding and self-assembly (Tgel), with rheology of thermal reversibility; format: physicochemical
Description: At low temperature MAX1 is unfolded (and unassembled). At high temperature MAX1 folds into beta-sheet (and consequently self-assembles into a hydrogel). […] The relative hydrophobicity is MAX1>MAX2>MAX3 due to the isostructural but less hydrophobic substitutions of threonine for valine at the underlined positions. The most hydrophobic folds at the lowest temperature while the least hydrophobic folds at the highest temperature. This is a direct manifestations of the molecular parameter manipulations described in FIG. 2. Also shown are the calculated free energy of transfer of each corresponding unfolded peptide having an overall +8 charge state from octanol into water at 25° C. MAX1, the most hydrophobic has the highest free energy of transfer equal to 7.60 kcal/mol. MAX2 has a calculated transfer free energy of 6.88 kcal/mol, while the least hydrophobic MAX3 has the lowest energy of transfer of 6.45 kcal/mol.
This allows the characteristics of the hydrogels of the invention to be varied by adjusting these parameters. […] It is well known that water is better able to solvate hydrophobic groups at low temperatures. […] At this temperature, folding and self-assembly are slow enough to be conveniently monitored. […] The resulting peptides vary in their hydrophobicity as evident by comparing calculated free energies of transfer from octanol into water, FIG. 9. […]

[2] = tested on: NIH 3T3 fibroblasts; test: 3H thymidine cell seeding / proliferation assay; format: cell-based, mouse
[3] = tested on: C3H10t1/2 mesenchymal stem cells; test: Encapsulation of mesenchymal stem cells in hydrogel, LSCM imaging of cell distribution; format: cell-based; conditions: 0.5 wt % gel, 250K cells in DMEM, pH 7.4, 37° C.
Description: For example, FIG. 29 contains a Laser Scanning Confocal Microscopy (LSCM) cross-sectional view of C3H10t1/2 cells encapsulated within a 0.5 wt % MAX1 hydrogel. In this micrograph, cells contained within the interior of the gel are visualized from the side of the gel (along the y-axis, depth of field is 920 μm); the top and bottom of the image is the top and bottom of the gel, respectively. Cells are encapsulated by first dissolving 1.0 wt % MAX1 in buffer at pH 7.4. To this solution, an equal volume (50 μL) of DMEM cell culture medium containing 250,000 cells is added. The salt within the DMEM electrostatically screens the lysine side chain charges resulting in peptide folding and consequent self-assembly. This simple one-to-one addition of solutions affords gels impregnated with cells. However, it is clear in FIG. 29 that the hydrogelation kinetics of MAX1 are not fast enough to entrap the cells homogeneously since a majority of the cells sediment to the bottom of the gel sample well.
C3H10t1/2 cell growth conditions are 90% DMEM supplemented with 25 mM HEPES, 10% FBS, 5 mM L-glutamine, and 50 μg/mL Gentamicin at 37° C., 5% CO2. […] Viability of encapsulated cells in 0.5 wt % hydrogels (before and after shear thinning) was assessed via a Live/Dead assay at 3 hr after encapsulation. […]

In the case of `CC(C)[C@H](N)C(=O)N[C@@H](CCCCN)C(=O)N[C@H](C(=O)N[C@@H](CCCCN)C(=O)N[C@H](C(=O)N[C@@H](CCCCN)C(=O)N[C@H](C(=O)N[C@@H](CCCCN)C(=O)N[C@H](C(=O)N1CCC[C@@H]1C(=O)N1CCC[C@H]1C(=O)N[C@H](C(=O)N[C@@H](CCCCN)C(=O)N[C@H](C(=O)N[C@@H](CCCCN)C(=O)N[C@H](C(=O)N[C@@H](CCCCN)C(=O)N[C@H](C(=O)N[C@@H](CCCCN)C(=O)N[C@H](C(N)=O)C(C)C)C(C)C)C(C)C)C(C)C)[C@@H](C)O)C(C)C)C(C)C)C(C)C)C(C)C` [MAX1, VKVKVKVK V^DPPT KVKVKVKV-NH2] (H-VKVKVKVKV[dP]PTKVKVKVKV-NH2), the “reversibility of thermally induced hydrogelation” value ([1]; CD 150 μM and rheology 2 wt %, heating/cooling cycles 5-80° C.) is reported as “not reversible”, the “transition temperature from random coil state to folded β-sheet structure” value ([1]; pH 9 and low (20 mM) salt) is reported as “around 25 °C” and the “optimal cell seeding density for 2 day proliferation assays” value ([2]; 2 wt % hydrogel, 48 hours) is reported as 40,000 fibroblasts. For the same compound, the “cell proliferation on hydrogel versus tissue culture polystyrene control” value ([2]; 2 wt. % hydrogel, after 48 hours, 3H thymidine) was “more cells have grown on the hydrogel than on the control surface; also recorded: higher than the control at all cell seeding densities” and the “distribution of cells encapsulated in gel” value [3] was “non-homogenous cell encapsulation”.
